Several values for one entry are separate records, joined by “and”; a condition that tells them apart may be missing. Identical values can stand only once. The whole screen tested about 110,000 compounds, of which about 20 (0.02%) were called active. Inconclusive results (about 2%) are left out. Calls come from the whole dose curve; as a rule, active = well fitted activation curve with a large enough effect; inconclusive = small, poorly fitted or top-dose-only effect; inactive = no such curve, though single readings can be large or run the other way. Only a part is listed here, and it is no random draw. The source gives no active or inactive call for entries shown without one.
Potency is the fitted concentration of half-maximal effect.

A short description of the assay: qHTS Assay for Compounds that Induce Erasure of Genomic Imprints.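 For activity change, positive = activation: 0% = negative control wells on the plate.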 Conditions: mouse ES Peg3-LacZ reporter, beta-gal luminescence, 40 h; activity change, positive = activation: at 60.7 µM (top of the series). An excerpt: qHTS Assay for Compounds that Induce Erasure of Genomic Imprints NIH Chemical Genomics Center [NCGC] NIH Molecular Libraries Screening Centers Network [MLSCN] Assay Submitter (PI): JEFFRIES, SEAN, NCGC, University of Cambridge NCGC Peg3 Imprinting Assay Overview Genomic imprinting is the epigenetic process whereby genes are expressed in a parent of origin fashion. […] Unlike some forms of epigenetic silencing that can be overcome by overexpression of transcription factors, genomic imprinting stably represses the expression of one allele despite potentially high levels of expression from the other allele. […] During mouse embryonic day 11.5 imprints are erased in PGCs so that sex specific imprints can be reestablished during gametogenesis. Embryonic germ (EG) cells can be derived from developing PGCs at embryonic day 11.5 and these cells often lack genomic imprints. […] Embryonic stem (ES) cells are a cell type similar to EG cells in phenotype and transcriptional profile, yet ES cells maintain genomic imprints. This similarity between ES and EG cells prompted us to use ES cells to look for factors which could induce imprint erasure. To investigate the stability of genomic imprinting, ES cells were derived from mice with an insertion of a LacZ-Neomycin reporter construct in the Peg3 locus. Peg3 is an imprinted locus where gene expression is restricted to the paternal allele. […] Using LacZ expression we are able to monitor the state of the Peg3 imprint. In order to dissect the mechanisms involved in imprint erasure using a forward chemical genetics approach we developed a cell based phenotype assay using an endogenous silence imprinted locus. This assay utilizes maternally inherited Peg3LacZ-Neo ES cells by monitoring the LacZ expression from the normally silent Peg3 allele. To facilitate screening, high-density feeder-free ES cell culture has been optimized so that ES cells can be grown in 1536 for over four days without feeding or washes. The assay uses a luminescence based read out for LacZ activity and is a homogenous assay optimal for HTS.
NCGC Peg3 Imprinting Assay Protocol Summary ES cell lines were derived from blastocysts taken from Peg3LacZ-Neo x129 matings. Lines were sexed and genotyped for the Peg3LacZ-Neo allele. Female cells carrying the reporter allele were used in this study. Cells were derived on a layer of mouse embryonic fibroblasts and passaged multiple times before switching to feeder free culture. Cells were maintained feeder free on gelatin coated dishes in DMEM/F12 media supplemented with 15% FBS, 2mM L-glutamine, 100 units/ml penicillin, 100ug/ml streptomycin, 0.1mM MEM nonessential amino acids, 1mM sodium pyruvate, 0.1% sodium bicarbonate, 0.1mM 2-Mercaptoethanol, and 400 units/ml leukemia inhibitory factor (LIF) at 37C with 5% CO2. The assay was performed in 1536-well format. A single luminescence read was taken at the end of the assay and the data was normalized by plate to internal negative controls. Maximum efficacy and AC50 values were calculated from dose-response data using the standard Hill equation. 1536 well plates were filled with 0.5ul of 0.1% gelatin per well, spun down and incubated for at least 30 min at 37C. The ES cells were then trypsini Peg3 1536-well assay protocol: (1)Plate 0.5ul/well 0.1% gelatin in white tissue culture treated 1536-well plates, spin and incubate at 37C for at least 30 min. (2)Add 5ul/well (300 cells) of ES cell suspension from freshly trypsinized cells and incubate at 37C, 5% CO2 for 40 hours. (3)Add 5ul/well of freshly prepared BetaGlo solution and incubate at room temperature for 5 minutes. (4)Read luminescence on the ViewLux plate reader. Keywords Genomic Imprinting, Germ Cells, Embryonic Stem Cell, DNA Methylation, Peg3, qHTS, NIH roadmap, NCGC
(In general: Quantitative high-throughput screening tests each substance at several concentrations.)
As to `CNc1nc(-c2cccc(C#N)c2)nc2ccccc12`, the Potency was active: 1.26 µM.
In the case of `C=CCN1C(=O)C2C(C(=O)NCc3ccccc3)C3(C)C=CC2(O3)C1C(=O)NC(C)(C)C` (stereo unspecified), the Potency was active: 10 µM.
Take `CCCOC(=O)NC1C(NC(=O)OCCC)N(C)C(=O)N1C` (stereo unspecified): the activity change, positive = activation is -3.61%.
As for `COc1ccc(C(C)=O)cc1COC(=O)c1cnc(C)cn1`, the Potency was active: 15.8 µM.
Consider `Cc1cc(NC(=O)CSc2nnc(-c3ccoc3C)o2)no1`, for which the activity change, positive = activation is -51.2%.
Still for that read-out and setting: the result for `C=CCNc1nc(N)c(C(=O)Nc2cc(C)on2)s1` reads -44.5%.
For `CCOc1ccc(-n2c(Cc3cc(=O)[nH]c(=O)[nH]3)nnc2SC(C)C)cc1`, the activity change, positive = activation was found to be 33.2%.
For `COC(=O)/C(=C1\OC(=O)C(c2ccccc2)C1=O)c1ccccc1` (stereo unspecified), the activity change, positive = activation is -79.8%.
In the case of `COc1ccc(-c2nc3cnc(N4CCNCC4)nc3n(Cc3cccs3)c2=O)cc1`, the “activity change, positive = activation” value was inactive: -50.4%.
For the compound `COc1ccc(CNc2nc(-c3ccccc3OC)nc3ccccc23)c(OC)c1`, the activity change, positive = activation is -39.8%.
Still for that read-out and setting: the result for `Cc1cccc(CNc2nc(-c3ccc(C(=O)N(C)C)cc3)nc3ccccc23)c1` reads -32.6%.
On to `O=C(Nc1nc2c(s1)CCCC2)C1COc2ccccc2O1` (stereo unspecified), for which the “activity change, positive = activation” value is inactive: -57.2%.
Same read-out and setting: the result for `COc1ccc2c(c1)Cc1sc(NC(C)=O)nc1-2` reads inactive: -57.3%; that for `COc1ccc(-c2nc3ccccc3s2)cc1O`, -91.1%.
Still for that read-out and setting: the result for `OC[C@H]1O[C@@H](n2cnc3cncnc32)[C@H](O)[C@@H]1O` reads -39.3%; that for `FC(F)(F)c1ccccc1-c1nc(Nc2ccncc2)c2ccccc2n1`, -34.3%.
As to `N#Cc1cccc(-c2nc(NCc3cccs3)c3ccccc3n2)c1`, the Potency was active: 6.31 µM.
`CCOCCCNc1ncc2c(n1)CC(c1ccc(C)cc1)CC2=O` (stereo unspecified): the activity change, positive = activation is 34.7%.
Take `Cc1cc(C)n(-c2nc3c(c(=O)n(Cc4ccc(Cl)c(Cl)c4)c(=O)n3C)n2C)n1`: the activity change, positive = activation was 31.4%.
`C[C@@H]1OC(OC2CC[C@@]3(C)C(CC[C@@]4(C)C3CC=C3C5CC(C)(C)CC[C@]5(C(=O)OC5OCC(O)[C@@H](O)[C@@H]5OC5O[C@@H](C)[C@H](O[C@H]6OC(CO)C(O)C(O)C6O)C(O)C5O)C(O)C[C@@]34C)C2(C)C)C(O)C(O)[C@H]1OC1OCC(O)C(O)[C@H]1O` (stereo partly specified): the activity change, positive = activation is -31.7%.
Still for that read-out and setting: the result for `CC(C)C(=O)Nc1ccc(NC(=O)c2ccccn2)cn1` reads inactive: -84%; that for `CN(C)c1ccc(-c2nc(Nc3ccncc3)c3ccccc3n2)cc1`, -45.5%.
As to `Oc1ccc(O)cc1`, the Potency was active: 12.6 µM and active: 10 µM.
For `CN(Cc1ccco1)c1ncnc2ccc(-c3cccnc3)cc12`, the activity change, positive = activation is -53.1%.
As for `CCN(CC)c1ccc(NC(=O)c2cncc(Br)c2)cc1`, the activity change, positive = activation is -31.6%.
For the compound `CCOCCn1c(CN2CCN(c3ccc(F)cc3)CC2)nc2c1c(=O)n(C)c(=O)n2C`, the activity change, positive = activation turned out to be 32.4%.
On the same count and under the same terms, the result for `Cc1ccc(-n2c(C)cc(C3N=C(N)Nc4nc5ccccc5n43)c2C)c(C)c1` (stereo unspecified) reads inactive: -52%.
Turning to `Cc1nc2cnc(Nc3ccccc3)nc2n(Cc2ccc(F)cc2)c1=O`, the Potency is active: 3.16 µM.
`CCN1C(=O)CC(N2CCC(Nc3ccc(F)cc3)CC2)C1=O` (stereo unspecified): the activity change, positive = activation is 40.1%.
The same measure, in the same setting: the result for `COc1cccc(-c2nc(Nc3ccncc3)c3ccccc3n2)c1` reads -36.6%; that for `CCC(=O)Nc1cnc(NC(=O)c2cccc(F)c2)cc1C`, 11.9%; that for `Cc1ccc2nc(NC(=O)c3cccs3)sc2c1`, -86.2%.
As for `O=C(Nc1ccc(-c2nc3ccccc3o2)cc1)C1CCCO1` (stereo unspecified), the activity change, positive = activation was -76.8%.
Same read-out and setting: the result for `Nc1nc(Cl)nc2c1ncn2[C@H]1C[C@H](O)[C@@H](CO)O1` reads -36%; that for `COc1ccc(Cn2c3nc4ccccc4nc3c3c(=O)n(Cc4ccco4)c(C)nc32)cc1`, inactive: -32.1%.
On the same count and under the same terms, the result for `CCOc1ccccc1NC(=O)c1cccc(NC(=O)c2ccco2)c1` reads -36.6%; that for `CN(C)C(=O)c1ccc(NC(=O)c2cncc(Br)c2)cc1`, -82.6%.
In the case of `Clc1ccccc1-c1ccc2ncnc(N3CCNCC3)c2c1`, the Potency was active: 10 µM.
Regarding `O=c1c2ccccc2nnn1CSc1nnc2ccccn12`, the activity change, positive = activation was -69.2%.
As for `O=c1cc(-c2ccccc2O)oc2cc(O)ccc12`, the activity change, positive = activation was -60.7%.
On the same count and under the same terms, the result for `Cc1cnc(CNc2nc(-c3ccc(N(C)C)cc3)nc3ccccc23)cn1` reads -40%.

(Values after PubChem BioAssay AID1948 (National Center for Advancing Translational Sciences (NCATS), 2009).)
